According to article PMC5662751:
No constants are given. Whether binding was seen depends on the method and setting. Binding seen in cells or lysates may run through a third protein. These calls come from enrichment with a bait or labelling near it, and not all partners need be listed.

Chains of the proteins cited; added tags and fusions are not shown.
UniProt Q8CJG0: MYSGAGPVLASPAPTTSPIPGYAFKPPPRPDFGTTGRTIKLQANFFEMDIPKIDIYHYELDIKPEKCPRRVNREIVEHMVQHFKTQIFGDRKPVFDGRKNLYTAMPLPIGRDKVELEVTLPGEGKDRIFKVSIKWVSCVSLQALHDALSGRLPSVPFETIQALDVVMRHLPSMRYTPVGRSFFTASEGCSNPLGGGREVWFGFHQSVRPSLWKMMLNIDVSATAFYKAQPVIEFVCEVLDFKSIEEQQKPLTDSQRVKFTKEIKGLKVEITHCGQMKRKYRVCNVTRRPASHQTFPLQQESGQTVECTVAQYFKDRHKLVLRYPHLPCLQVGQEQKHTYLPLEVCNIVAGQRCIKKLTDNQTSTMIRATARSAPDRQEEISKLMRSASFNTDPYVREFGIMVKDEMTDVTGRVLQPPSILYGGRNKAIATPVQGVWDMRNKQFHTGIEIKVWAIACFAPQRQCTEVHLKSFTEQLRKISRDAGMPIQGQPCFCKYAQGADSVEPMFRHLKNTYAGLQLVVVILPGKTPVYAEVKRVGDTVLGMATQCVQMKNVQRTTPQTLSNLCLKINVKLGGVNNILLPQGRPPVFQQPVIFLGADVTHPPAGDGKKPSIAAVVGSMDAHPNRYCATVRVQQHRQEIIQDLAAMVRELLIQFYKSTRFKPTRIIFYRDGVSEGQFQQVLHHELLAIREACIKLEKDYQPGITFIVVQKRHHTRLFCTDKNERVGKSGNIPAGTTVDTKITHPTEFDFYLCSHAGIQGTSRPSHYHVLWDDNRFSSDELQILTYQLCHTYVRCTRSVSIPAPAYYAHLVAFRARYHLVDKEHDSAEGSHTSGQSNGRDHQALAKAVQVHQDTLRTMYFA
UniProt Q6ZQ08: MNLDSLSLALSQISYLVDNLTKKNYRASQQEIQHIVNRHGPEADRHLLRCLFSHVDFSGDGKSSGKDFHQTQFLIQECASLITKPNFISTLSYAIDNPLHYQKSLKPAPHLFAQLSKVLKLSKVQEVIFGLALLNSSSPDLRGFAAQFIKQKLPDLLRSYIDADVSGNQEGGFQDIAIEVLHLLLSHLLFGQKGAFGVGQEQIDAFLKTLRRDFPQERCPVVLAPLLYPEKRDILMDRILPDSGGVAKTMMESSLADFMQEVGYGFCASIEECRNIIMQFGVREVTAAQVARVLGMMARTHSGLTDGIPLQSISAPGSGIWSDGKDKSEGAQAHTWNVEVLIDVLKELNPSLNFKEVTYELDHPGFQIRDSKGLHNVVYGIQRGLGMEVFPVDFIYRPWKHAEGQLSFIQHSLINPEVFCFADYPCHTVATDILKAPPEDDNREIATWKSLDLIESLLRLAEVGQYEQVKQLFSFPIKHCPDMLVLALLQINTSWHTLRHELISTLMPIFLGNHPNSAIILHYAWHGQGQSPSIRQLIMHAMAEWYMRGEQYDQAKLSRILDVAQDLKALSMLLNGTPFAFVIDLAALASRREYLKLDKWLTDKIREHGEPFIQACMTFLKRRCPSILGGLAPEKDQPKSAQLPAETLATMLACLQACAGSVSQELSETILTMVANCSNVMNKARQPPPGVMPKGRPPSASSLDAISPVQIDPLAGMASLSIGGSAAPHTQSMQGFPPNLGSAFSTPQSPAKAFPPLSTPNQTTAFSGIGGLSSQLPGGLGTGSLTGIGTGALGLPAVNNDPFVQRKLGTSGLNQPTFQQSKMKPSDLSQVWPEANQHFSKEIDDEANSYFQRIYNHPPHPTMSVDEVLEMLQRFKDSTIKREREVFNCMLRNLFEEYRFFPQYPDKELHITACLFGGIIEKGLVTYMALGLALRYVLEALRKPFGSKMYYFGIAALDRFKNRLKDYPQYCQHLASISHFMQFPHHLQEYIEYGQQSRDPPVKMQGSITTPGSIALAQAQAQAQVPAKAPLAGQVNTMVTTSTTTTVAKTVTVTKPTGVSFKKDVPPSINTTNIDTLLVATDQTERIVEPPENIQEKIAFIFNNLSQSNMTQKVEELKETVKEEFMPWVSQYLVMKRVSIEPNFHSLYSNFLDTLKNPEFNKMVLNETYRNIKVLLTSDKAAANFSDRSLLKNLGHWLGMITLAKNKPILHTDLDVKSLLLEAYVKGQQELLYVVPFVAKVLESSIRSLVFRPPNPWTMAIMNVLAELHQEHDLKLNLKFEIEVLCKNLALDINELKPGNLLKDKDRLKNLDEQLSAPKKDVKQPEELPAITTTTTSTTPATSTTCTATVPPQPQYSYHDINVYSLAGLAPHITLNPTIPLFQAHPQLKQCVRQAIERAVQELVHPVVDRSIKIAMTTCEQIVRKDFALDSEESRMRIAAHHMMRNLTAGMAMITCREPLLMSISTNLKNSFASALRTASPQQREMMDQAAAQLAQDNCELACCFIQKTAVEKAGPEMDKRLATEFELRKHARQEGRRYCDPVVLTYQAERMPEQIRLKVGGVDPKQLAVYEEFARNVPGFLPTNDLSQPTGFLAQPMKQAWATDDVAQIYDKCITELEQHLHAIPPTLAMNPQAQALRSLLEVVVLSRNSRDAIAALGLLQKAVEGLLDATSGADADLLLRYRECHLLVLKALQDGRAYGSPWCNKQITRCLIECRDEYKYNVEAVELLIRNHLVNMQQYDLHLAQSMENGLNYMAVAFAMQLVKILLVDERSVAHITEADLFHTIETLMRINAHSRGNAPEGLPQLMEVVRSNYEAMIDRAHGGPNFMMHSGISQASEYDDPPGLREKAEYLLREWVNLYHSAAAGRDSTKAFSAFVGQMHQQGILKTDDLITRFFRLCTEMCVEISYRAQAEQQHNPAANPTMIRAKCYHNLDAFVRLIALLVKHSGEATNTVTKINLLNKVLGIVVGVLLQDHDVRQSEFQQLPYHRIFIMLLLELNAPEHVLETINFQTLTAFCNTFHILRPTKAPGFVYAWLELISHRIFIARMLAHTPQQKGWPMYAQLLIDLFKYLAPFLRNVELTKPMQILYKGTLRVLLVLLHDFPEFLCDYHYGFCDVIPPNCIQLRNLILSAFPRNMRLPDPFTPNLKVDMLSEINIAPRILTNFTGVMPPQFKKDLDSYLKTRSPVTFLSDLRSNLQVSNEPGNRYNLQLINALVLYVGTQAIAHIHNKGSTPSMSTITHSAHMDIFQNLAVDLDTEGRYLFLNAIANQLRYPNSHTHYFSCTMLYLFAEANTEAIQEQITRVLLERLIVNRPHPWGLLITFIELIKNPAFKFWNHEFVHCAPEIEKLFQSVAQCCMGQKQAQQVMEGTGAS

Target: Argonaute 2 (Ago2), mouse, endogenous (mouse (endogenous in RAW 264.7 and P19)) (UniProt Q8CJG0)
Assay: affinity purification with mass spectrometry; IP of endogenous Ago2 (anti-Ago2) from mouse RAW 264.7 cell extracts, undigested or totally digested with RNase A (10 mg/ml, 30 min, room temperature); label-free quantitative LC-MS/MS; IgG IP as control

CCR4-NOT Transcription Complex Subunit 1 (CNOT1), mouse, endogenous (from UniProt Q6ZQ08 1-2375)
binding: binds
